Sequences of proteins named here, by UniProt entry; tags and fusion partners are left off. A change or cut given only in a name is not applied to a line headed by its entry.
UniProt Q7KVG9: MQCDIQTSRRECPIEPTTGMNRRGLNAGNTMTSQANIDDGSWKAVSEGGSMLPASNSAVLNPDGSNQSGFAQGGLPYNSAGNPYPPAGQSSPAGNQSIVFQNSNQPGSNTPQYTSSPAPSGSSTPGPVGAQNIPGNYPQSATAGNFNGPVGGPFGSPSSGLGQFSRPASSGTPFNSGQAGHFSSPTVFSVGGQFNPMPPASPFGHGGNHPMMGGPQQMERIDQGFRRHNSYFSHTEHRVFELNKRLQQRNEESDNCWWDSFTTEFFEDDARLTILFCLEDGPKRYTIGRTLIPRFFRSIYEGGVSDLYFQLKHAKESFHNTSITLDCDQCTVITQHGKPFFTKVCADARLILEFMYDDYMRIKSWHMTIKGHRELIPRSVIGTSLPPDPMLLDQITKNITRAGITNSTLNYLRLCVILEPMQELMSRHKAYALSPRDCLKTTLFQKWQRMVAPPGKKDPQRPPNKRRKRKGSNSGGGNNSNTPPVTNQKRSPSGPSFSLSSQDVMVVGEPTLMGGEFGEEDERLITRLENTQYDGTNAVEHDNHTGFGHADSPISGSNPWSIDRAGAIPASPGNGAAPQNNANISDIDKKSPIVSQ

According to PMC6800368, “Rotational symmetry of the structured Chip/LDB-SSDP core module of the Wnt enhanceosome” (Proceedings of the National Academy of Sciences of the …, 2019):

Experiments:
[1] = target: Chip-V5FLAG with a double mutation in α7 (Drosophila) (UniProt Q7KVG9); assay: co-IP; Chip-V5FLAG (WT or mutant) coexpressed with SSDP-V5 (WT or mutant) in HEK293T cells
[2] = target: Chip-V5FLAG Δα7 (Drosophila) (UniProt Q7KVG9); assay: as above

binding [1]: binds
binding [2]: binds
B1: SSDP-V5 (protein, UniProt Q9VEB9 1-445)
chain: MYGKSKTSAVPSDAQAREKLALYVYEYLLHVGAQKAAQTFLSEIRWEKNITLGEPPGFLHTWWCVFWDLYCAAPERRDQCDHSSEAKAFHDYGFVSSGYGVNGIGPGGPHNAGGPAPSPLGQMPPGGDGGPMGPGGPMGPNFFPNSTMRPSPPTHASSPQPPPSQMMPGQPPFMGGPRYPGGPRPGVRMQGMGNEFNGPPGQPMMPNSMDPTRPGGGMGPMNPRMNPPRGPGGMGPMGYGGPGGMRGPAPGPGGMPPMGMGGAGGRPPQWQPNASAPLNAYSSSSPGNYGPGSNGPPGPGTPIMPSPQDNTQGGPVGGPGDSMYALMKPEFPMGGGPDGGGGGGGPGGMGPMGGGPNSMGPVLNGGGGPDGSGLDGMKNSPANGGPGTPREDSGSGMGDYNLGGFGGPGENDQTESAAILKIKESMHEEAKRFEKDTDHPDYFMP

Results are given in words; binding and its absence hold for the method and conditions named. Binding seen in cells or lysates may run through a third protein. A result given as binding can be weak or reduced; the word gives no strength. Where a sequence is shown, tags or fusion partners need not be part of it.
